Measurements published in PubChem BioAssay AID328 (DTP/NCI, 2004).
The list is a part of this screen's results and no random one: it gathers tests that were run many times, whatever their T/C, doses with no T/C, and many T/C values between a quarter and a half above the control. Further doses and runs are listed elsewhere. T/C is the treated group as % of the vehicle group. Some doses have a count of surviving animals in place of a T/C: the source holds a T/C of zero for them, seemingly a mark for toxic or unscored doses. Some survivor counts are full or nearly so, which does not show that the dose was tolerated: survival well below the control is almost never listed, so the zero probably covers shortened survival too. Counts of survivors are from the toxicity check (mostly the fifth day) where no day follows; animals may have died later. Schedules are NCI's codes, read here as Q, the interval in days (D) or hours (H), X, the number of doses. Some entries were tested several times; the values are given in rising order. Where survival is the endpoint, the PubChem record calls one and a half times the control and up active, and a quarter to a half above the control has no call in these data; cut-offs in other NCI protocols can differ. Some T/C values are followed by the survivors on the day toxicity was checked, most often the fifth; where none is given, no animal had died by that day.

System: BDF1 mice, P388 leukemia ip, median survival T/C
Assay: NCI In Vivo Anticancer Drug Screen. Data for tumor model P388 Leukemia (intraperitoneal) in B6D2F1 (BDF1) mice
Details: T/C endpoint: median survival time, higher T/C = longer survival
In short: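 Mice carrying the transplantable tumour receive compound or vehicle. Survival is followed in each arm, and the treated measure is divided by the vehicle measure.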

[1] = dose: 200.0 mg/kg/injection, schedule: Q01DX009 (ip), vehicle: Klucel (hydroxypropylcellulose) (HPC)
[2] = dose: 400.0 mg/kg/injection, schedule: Q01DX009 (ip), vehicle: Klucel (hydroxypropylcellulose) (HPC)
[3] = dose: 100.0 mg/kg/injection, schedule: Q01DX009 (ip), vehicle: saline with Tween-80
[4] = dose: 400.0 mg/kg/injection, schedule: Q04DX003 (ip), vehicle: saline with Tween-80
[5] = dose: 100.0 mg/kg/injection, schedule: Q01DX009 (ip), vehicle: Klucel (hydroxypropylcellulose) (HPC)

## CC1(C)CC(C)(c2ccccc2)c2ccccc21 (centres undefined)
[1]
  T/C: 130 % of control
  survivor count: 6 of 6
[2]
  survivor count: 6 of 6

## CNCCSS(=O)(=O)CCNC
dose: 50.0 mg/kg/injection, schedule: Q01DX005 (ip), vehicle: saline
  survivor count: 5 of 5
dose: 200.0 mg/kg/injection, schedule: Q01DX005 (ip), vehicle: saline
  survivor count: 5 of 5

## O=C1C(F)=C(N2CC2)C(=O)C(N2CCOCC2)=C1N1CC1
dose: 0.75 mg/kg/injection, schedule: Q01DX009 (ip), vehicle: saline
  T/C: 125 % of control
dose: 1.5 mg/kg/injection, schedule: Q01DX009 (ip), vehicle: saline
  survivor count: 5 of 6

## CC1NC(C(=O)O)Cc2cc(O)c(O)cc21 (centres undefined)
dose: 25.0 mg/kg/injection, schedule: Q01DX009 (ip), vehicle: Klucel (hydroxypropylcellulose) (HPC)
  survivor count: 3 of 3

## OC(Cc1ccc2ccccc2n1)C(Cl)(Cl)Cl (centres undefined)
[3]
  survivor count: 6 of 6
dose: 200.0 mg/kg/injection, schedule: Q01DX009 (ip), vehicle: saline with Tween-80
  survivor count: 6 of 6

## Cc1n(Cc2ccccc2)c2c([n+]1C)C(=O)c1ccccc1C2=O
dose: 4.0 mg/kg/injection, schedule: Q01DX010 (ip), vehicle: saline
  survivor count: 1 of 6

## N#Cc1c[nH]n2c(=S)ncnc12
[4]
  survivor count: 4 of 6

## O=[n+]1c2c(n([O-])c3ccccc31)-c1cccc3cccc-2c13
dose: 200.0 mg/kg/injection, schedule: Q01DX010 (ip), vehicle: saline
  survivor count: 6 of 6

## CCN(CC)C(=O)c1ccc([N+](=O)[O-])cc1
dose: 100.0 mg/kg/injection, schedule: Q04DX003 (ip), vehicle: Klucel (hydroxypropylcellulose) (HPC)
  survivor count: 5 of 6

## O=c1ccc2cc(Cl)ccc2[nH]1
dose: 200.0 mg/kg/injection, schedule: Q01DX001 (ip), vehicle: saline with Tween-80
  survivor count: 3 of 6

## S=C(NCCNC(=S)[S][Sn]([c]1ccccc1)([c]1ccccc1)[c]1ccccc1)[S][Sn]([c]1ccccc1)([c]1ccccc1)[c]1ccccc1
dose: 11.3 mg/kg/injection, schedule: Q01DX009 (ip), vehicle: saline with Tween-80
  T/C: 132 % of control
dose: 25.0 mg/kg/injection, schedule: Q01DX009 (ip), vehicle: saline with Tween-80
  T/C: 136 % of control
[3]
  survivor count: 4 of 6

## Oc1cc(CN(CCCl)CCCl)c(O)cc1CN(CCCl)CCCl
dose: 0.63 mg/kg/injection, schedule: Q01DX010 (ip), vehicle: saline
  survivor count: 3 of 6
dose: 5.0 mg/kg/injection, schedule: Q01DX010 (ip), vehicle: saline
  T/C: 131 % of control

## O=[N+]([O-])c1ccc(Sc2cccc[n+]2[O-])c2nonc12
dose: 15.0 mg/kg/injection, schedule: Q01DX009 (ip), vehicle: saline with Tween-80
  survivor count: 3 of 7
dose: 30.0 mg/kg/injection, schedule: Q01DX009 (ip), vehicle: saline with Tween-80
  survivor count: 1 of 7
dose: 60.0 mg/kg/injection, schedule: Q01DX009 (ip), vehicle: saline with Tween-80
  survivor count: 0 of 7

## NC(N)=N/N=C/c1ccc(Cl)c(Cl)c1
[5]
  survivor count: 1 of 6

## CC(=O)N(N=Nc1ccccc1)c1cccc2ccccc12
dose: 50.0 mg/kg/injection, schedule: Q01DX009 (ip), vehicle: Klucel (hydroxypropylcellulose) (HPC)
  T/C: 131 % of control
dose: 75.0 mg/kg/injection, schedule: Q01DX009 (ip), vehicle: Klucel (hydroxypropylcellulose) (HPC)
  survivor count: 3 of 6
[5]
  survivor count: 3 of 6 and 6 of 6
[1]
  survivor count: 2 of 6
dose: 200.0 mg/kg/injection, schedule: Q04DX003 (ip), vehicle: Klucel (hydroxypropylcellulose) (HPC)
  survivor count: 5 of 6
[2]
  survivor count: 2 of 6

## O=[N+]([O-])c1ccc(N=N/C(Cc2ccccc2)=N\Nc2ccccc2)cc1
[2]
  survivor count: 5 of 6

## c1ccc([P+](CCCCCCCCCC[P+](c2ccccc2)(c2ccccc2)c2ccccc2)(c2ccccc2)c2ccccc2)cc1
dose: 10.0 mg/kg/injection, schedule: Q01DX010 (ip), vehicle: saline
  survivor count: 0 of 6
dose: 20.0 mg/kg/injection, schedule: Q01DX010 (ip), vehicle: saline
  survivor count: 0 of 6

## CS(=O)(=O)OCCN(CCOS(C)(=O)=O)c1ccc(/C=N/Nc2ncnc3nc[nH]c23)cc1
dose: 6.25 mg/kg/injection, schedule: Q04DX003 (ip), vehicle: saline with Tween-80
  T/C: 140 % of control
dose: 12.5 mg/kg/injection, schedule: Q04DX003 (ip), vehicle: saline with Tween-80
  T/C: 135 % of control [5 of 6 alive]
dose: 66.0 mg/kg/injection, schedule: Q01DX009 (ip), vehicle: saline with Tween-80
  survivor count: 5 of 6
[3]
  survivor count: 3 of 6
dose: 150.0 mg/kg/injection, schedule: Q01DX009 (ip), vehicle: saline with Tween-80
  survivor count: 2 of 6
[4]
  survivor count: 3 of 6
